PubChem BioAssay AID504793 | Drosophila RNAi Screening Center, 2011
The screen tested about 23,000 reagents; below is an unselected part of those that have a named target and a result. Of all reagents, 62 (0.27%) got an active call. 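Calls come from follow-up tests whose scores are not deposited, so confirmed genes may have low counts here; counts are not normalised per plate.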 The raw values are shown without normalisation. The numbers tell different reagents against one gene apart. Names joined by + are all predicted targets of the reagent. No sequences are given here.

Purpose: 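Whole-genome screen for parts of the DNA damage checkpoint at G2/M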 (primary screen)
Cells: Drosophila S2R+ cells
Reagent: long dsRNA against Drosophila genes, about 0.25 µg dsRNA per well
Timing: 4 days of dsRNA, then 4 hours of drug before read-out
Challenge: doxorubicin 0.5 µM for 4 hours to cause double-strand breaks, in cells also given a low, harmless dose of dsRNA against nbs to sensitise the assay
Measured: 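Per-well count of mitotic cells stained for phospho-histone H3 after doxorubicin exposure, used as mitotic index; counts are raw and not normalised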
Reading the numbers: mitotic cells: higher = more cells in mitosis, weaker G2 arrest
Call rule: 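Genes are called active only when high mitotic counts were reproduced with independent dsRNAs and mitosis was checked for delay without damage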
Meaning of the calls: active = confirmed in follow-up tests; inactive = not confirmed

gene,dsRNA no.,"mitotic cells, replicate 1","mitotic cells, replicate 2",call
Jheh2 (Juvenile hormone epoxide hydrolase 2),1,1,,inactive
Jheh2 (Juvenile hormone epoxide hydrolase 2),2,6,,inactive
Ipk1 (Inositol phosphate kinase 1),1,4,,inactive
Ipk1 (Inositol phosphate kinase 1),2,3,,inactive
Ipk1 (Inositol phosphate kinase 1),3,2,,inactive
Prat2 (Phosphoribosylamidotransferase 2),1,5,,inactive
spag4 (sperm-associated antigen 4),1,9,,inactive
CG31909,1,9,,inactive
CG31909,2,7,,inactive
CG32834,1,11,,inactive
CG32834,2,11,,inactive
CG15167,1,4,,inactive
bys (by S6),1,6,,inactive
bys (by S6),2,3,,inactive
Ca-beta (Ca2+-channel-protein-beta-subunit),1,2,,inactive
Ca-beta (Ca2+-channel-protein-beta-subunit),2,6,,inactive
Ca-beta (Ca2+-channel-protein-beta-subunit),3,4,,inactive
Ca-beta (Ca2+-channel-protein-beta-subunit),4,20,,inactive
Ca-beta (Ca2+-channel-protein-beta-subunit),5,4,,inactive
Grl43a (Gustatory receptor-like 43a),1,3,,inactive
CG2841,1,11,,inactive
CG2841,2,5,,inactive
Ada2b (transcriptional Adaptor 2b),1,4,,inactive
ERR (estrogen-related receptor),1,6,,inactive
Bmcp,1,2,,inactive
Rsph4a (Radial spoke head protein 4a),1,7,,inactive
Rsph4a (Radial spoke head protein 4a),2,8,,inactive
CG11380,1,15,,inactive
CG11380,2,4,,inactive
Keap1,1,9,,inactive
Keap1,2,8,,inactive
Trpgamma (Transient receptor potential cation channel gamma),1,4,,inactive
Cpr72Ea (Cuticular protein 72Ea),1,6,,inactive
Acp53Ea (Accessory gland protein 53Ea),1,9,,inactive
tra (transformer),1,3,,inactive
Dro (Drosocin),1,5,,inactive
Dro (Drosocin),2,15,,inactive
CG6462,1,3,,inactive
CG6462,2,2,,inactive
CG46301,1,10,14,inactive
CG46301,2,4,,inactive
CG15930,1,16,,inactive
CG15930,2,11,,inactive
lin-52,1,11,,inactive
Ho (Heme oxygenase),1,4,,inactive
Ptx1,1,16,,inactive
Ptx1,2,10,,inactive
Cpr49Ah (Cuticular protein 49Ah),1,11,,inactive
Cpr49Ah (Cuticular protein 49Ah),2,4,,inactive
CG33013 (retired record),1,6,,inactive
CG33013 (retired record),2,9,,inactive
CG14174,1,5,,inactive
Fkbp14 (FK506-binding protein 14),1,14,,inactive
twi (twist),1,8,,inactive
twi (twist),2,1,,inactive
Unr (Upstream of N-ras),1,9,,inactive
Unr (Upstream of N-ras),2,8,,inactive
blo (bloated),1,2,,inactive
blo (bloated),2,7,,inactive
Gr92a (Gustatory receptor 92a),1,12,,inactive
CG3748,1,6,,inactive
CG3748,2,2,,inactive
Myo10A (Myosin 10A),1,8,,inactive
Myo10A (Myosin 10A),2,14,,inactive
mthl1 (methuselah-like 1),1,7,,inactive
rdx (roadkill),1,5,,inactive
rdx (roadkill),2,9,,inactive
rdx (roadkill),3,7,,inactive
Amph (Amphiphysin),1,6,,inactive
CG1840,1,4,,inactive
CG1840,2,8,,inactive
Rab9D + Rab9Fa + Rab9E,1,12,,inactive
CG13157,1,6,,inactive
CG7497,1,7,,inactive
CG7497,2,7,,inactive

In a second layout: results already given.
{"gene": "twi (twist)", "dsRNA no.": 1, "mitotic cells, replicate 1": 8, "call": "inactive"}
{"gene": "twi (twist)", "dsRNA no.": 2, "mitotic cells, replicate 1": 1, "call": "inactive"}
{"gene": "Unr (Upstream of N-ras)", "dsRNA no.": 1, "mitotic cells, replicate 1": 9, "call": "inactive"}
{"gene": "Unr (Upstream of N-ras)", "dsRNA no.": 2, "mitotic cells, replicate 1": 8, "call": "inactive"}
{"gene": "blo (bloated)", "dsRNA no.": 1, "mitotic cells, replicate 1": 2, "call": "inactive"}
{"gene": "blo (bloated)", "dsRNA no.": 2, "mitotic cells, replicate 1": 7, "call": "inactive"}
{"gene": "Gr92a (Gustatory receptor 92a)", "dsRNA no.": 1, "mitotic cells, replicate 1": 12, "call": "inactive"}
{"gene": "CG3748", "dsRNA no.": 1, "mitotic cells, replicate 1": 6, "call": "inactive"}
{"gene": "CG3748", "dsRNA no.": 2, "mitotic cells, replicate 1": 2, "call": "inactive"}
{"gene": "Myo10A (Myosin 10A)", "dsRNA no.": 1, "mitotic cells, replicate 1": 8, "call": "inactive"}
{"gene": "Myo10A (Myosin 10A)", "dsRNA no.": 2, "mitotic cells, replicate 1": 14, "call": "inactive"}
{"gene": "mthl1 (methuselah-like 1)", "dsRNA no.": 1, "mitotic cells, replicate 1": 7, "call": "inactive"}
{"gene": "rdx (roadkill)", "dsRNA no.": 1, "mitotic cells, replicate 1": 5, "call": "inactive"}
{"gene": "rdx (roadkill)", "dsRNA no.": 2, "mitotic cells, replicate 1": 9, "call": "inactive"}
{"gene": "rdx (roadkill)", "dsRNA no.": 3, "mitotic cells, replicate 1": 7, "call": "inactive"}
{"gene": "Amph (Amphiphysin)", "dsRNA no.": 1, "mitotic cells, replicate 1": 6, "call": "inactive"}
{"gene": "CG1840", "dsRNA no.": 1, "mitotic cells, replicate 1": 4, "call": "inactive"}
{"gene": "CG1840", "dsRNA no.": 2, "mitotic cells, replicate 1": 8, "call": "inactive"}
{"gene": "Rab9D + Rab9Fa + Rab9E", "dsRNA no.": 1, "mitotic cells, replicate 1": 12, "call": "inactive"}

Next reagents:
gene,dsRNA no.,"mitotic cells, replicate 1","mitotic cells, replicate 2",call
Obp46a (Odorant-binding protein 46a),1,8,,inactive
e(y)2 (enhancer of yellow 2),1,11,,inactive
scramb2 (scramblase 2),1,6,,inactive
scramb2 (scramblase 2),2,9,,inactive
Socs16D (Suppressor of Cytokine Signaling at 16D),1,15,,inactive
Socs16D (Suppressor of Cytokine Signaling at 16D),2,9,,inactive
CG12017,1,4,,inactive
CG12017,2,3,,inactive
Gr98d (Gustatory receptor 98d),1,18,,inactive
Gr98d (Gustatory receptor 98d),2,7,,inactive
hng2 (hinge2),1,1,,inactive
CG18493,1,,,inactive
spirit (Serine Protease Immune Response Integrator),1,15,,inactive
spirit (Serine Protease Immune Response Integrator),2,2,,inactive
CG13984,1,6,,inactive
ham (hamlet),1,7,,inactive
ham (hamlet),2,9,,inactive
ham (hamlet),3,8,,inactive
ham (hamlet),4,8,,inactive
CG31515,1,11,,inactive
CG9839,1,5,,inactive
CG5984,1,17,,inactive
CG13640,1,18,,inactive
Coq2 (Coenzyme Q biosynthesis protein 2),1,5,,inactive
Coq2 (Coenzyme Q biosynthesis protein 2),2,14,,inactive
Coq2 (Coenzyme Q biosynthesis protein 2),3,4,,inactive
SP1173,1,3,,inactive
smo (smoothened),1,5,,inactive
smo (smoothened),2,7,,inactive
Npl4 (Nuclear protein localization 4),1,18,,inactive
Npl4 (Nuclear protein localization 4),2,30,,inactive
CG12828,1,2,,inactive
Ctns (Cystinosin),1,14,,inactive
CG17134,1,7,,inactive
Cep135 (Centrosomal protein 135kDa),1,6,,inactive
Cep135 (Centrosomal protein 135kDa),2,4,,inactive
pkaap,1,10,,inactive
PIG-Wb (Phosphatidylinositol glycan anchor biosynthesis class W b),1,6,,inactive
CG11300,1,11,,inactive
Mppe (Metallophosphoesterase),1,8,,inactive
CG11112,1,9,,inactive
CG11112,2,5,,inactive
SREBP (Sterol regulatory element binding protein),1,3,,inactive
CR11386 + CR33222,1,6,,inactive
CR11386 + CR33222,2,4,,inactive
mRRF2 (mitochondrial ribosome recycling factor 2),1,10,,inactive
eEF1beta (eukaryotic translation elongation factor 1 beta),1,6,,inactive
eEF1beta (eukaryotic translation elongation factor 1 beta),2,6,,inactive
Fdx1 (Ferredoxin 1),1,2,,inactive
Fdx1 (Ferredoxin 1),2,5,,inactive
Rpn11 (Regulatory particle non-ATPase 11),1,54,,inactive
AsnRS (Asparaginyl-tRNA synthetase),1,2,,inactive
vn (vein),1,6,,inactive
vn (vein),2,5,,inactive
ZnT86D (Zinc transporter 86D),1,6,,inactive
Tsp5D (Tetraspanin 5D),1,14,,inactive
CG7582,1,19,,inactive
Lint-1 (l(3)mbt interacting protein 1),1,10,,inactive
Lint-1 (l(3)mbt interacting protein 1),2,9,,inactive
CG15756,1,17,,inactive
CG15756,2,7,,inactive
Mgat1,1,10,,inactive
NimC1 (Nimrod C1),1,6,,inactive
GABA-B-R3 (metabotropic GABA-B receptor subtype 3),1,4,,inactive
GABA-B-R3 (metabotropic GABA-B receptor subtype 3),2,4,,inactive
